Assay: Total phenolics as gallic acid equivalent (Folin-Ciocalteu)

Molecule	G.A. equivalent (0.01 mM) [mM]	G.A. equivalent (0.03 mM) [mM]	G.A. equivalent (0.10 mM) [mM]
vitamin E	1.05	2.36	3.71
O=C1O[C@H]([C@@H](O)CO)C(O)=C1O [Vitamin C, vitamin C]	1.15	2.34	7.20
